The source of these data is PubChem BioAssay AID493014 (National Center for Advancing Translational Sciences (NCATS), 2011).

The assay is described as follows: qHTS Assay to Find Inhibitors of Chronic Active B-Cell Receptor Signaling. As to conditions: ABC-DLBCL IkBa-CBG/CBR reporter, luminescence ratio (green luciferase fused to IkBa over red control in TMD8 lymphoma cells), 4 h. A digest of the protocol: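 Cell line TMD8 (human ABC DLBCL), stably expressing tet-inducible CBG68-IkBa fusion and CBR; IMDM/0.5% FBS; cpd up to 46 uM; dox induction, 4 h, 37C/5% CO2; dual luminescence; green/red ratio; MG132 control.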
In general terms: Quantitative high-throughput screening tests each substance at several concentrations.

Where [1] appears, read: measured here: CBR red luminescence, cell number.
Setting [2] is: measured here: IkBa-CBG green luminescence.

Some of the results follow. The main result of the screen is listed elsewhere. These columns were measured beside it and carry no call. Most of these compounds were active or inconclusive in the main read-out, so they are no random draw. The note in brackets gives the kind of curve behind each potency; many fits are weak.

In general, AC50 refers to the midpoint of the concentration-response curve, whichever way the signal moves. With `Oc1ccc(-c2nccc(-c3ccc(Cl)cc3Cl)n2)cc1`, the AC50 under setting [1] is 11.2 µM [rising, partial curve].

`Cc1cc(C)nc(N/N=C/c2ccc3c(c2)OCCO3)n1`: under setting [1], the AC50 is 35.5 µM [falling, single point].

In the case of `CCC(=O)Nc1ccc(C(=O)CN2C(=O)NC3(CCOc4ccccc43)C2=O)cc1` (stereo not given), the AC50 under setting [1] was 2.31 µM [rising, partial curve, poor fit].

On to `N=C1C(c2nc3ccccc3s2)=C(O)CN1NC(=O)c1ccc([N+](=O)[O-])cc1`, for which the AC50 under setting [1] is 12.6 µM [falling, single point].

For the molecule `COc1cc(/C=N\NC(=O)c2sc(N)nc2C)cc(OC)c1OC`, the AC50 under setting [1] is 1.26 µM [falling, full curve].

Turning to `CCOC(=O)c1ccc(-n2ccnc2)c(NC(=O)c2cccc(Br)c2)c1`, under setting [1], the AC50 is 25.9 µM [falling, partial curve].

Regarding `Cc1nnsc1SCCNC(=O)Nc1ccc(Cl)cc1`, under setting [1], the AC50 was 0.355 µM [rising, partial curve, poor fit].

Take `O=[N+]([O-])c1ccc(-c2cn3c(n2)CCC3)cc1`: under setting [1], the AC50 was 8.91 µM [rising, partial curve, poor fit].

With `COc1ccc(NC(=O)NNC(=O)C(C)Oc2ccc(C(C)C)cc2)c(OC)c1` (stereo not given), the AC50 under setting [1] is 15.8 µM [falling, single point].

For the molecule `CC(NC(=O)CSc1nc2ccccc2c(=O)n1CCCO)c1ccccc1` (stereo not given), the AC50 under setting [1] is 29.1 µM [falling, single point].

With `COc1cc(NC(C)=O)c2ncccc2c1NC(C)=O`, the AC50 under setting [1] was 11.2 µM [falling, single point].

Consider `COc1cccc(CC2(CO)CCN(S(=O)(=O)N(C)C)CC2)c1`, for which, under setting [1], the half-maximal activity concentration (AC50) is 31.6 µM [rising, partial curve, poor fit].

Take `CCOC(=O)N1CCN(C(=O)CSc2nc3c([nH]c4ccccc43)c(=O)n2CC)CC1`: the half-maximal activity concentration (AC50) under setting [1] was 0.398 µM [falling, partial curve, poor fit].

In the case of `Cc1ccc(NS(=O)(=O)c2ccc3c(c2)oc(=O)n3C)cc1F`, under setting [1], the AC50 is 23.1 µM [falling, single point].

For the molecule `CCOc1ccc(CSC(=N)N)cc1Cl`, the AC50 under setting [1] was 1.26 µM [falling, full curve, poor fit].

`Cc1ccc(C)n1CCN1CCN(C(=O)CC#N)CC1`: the AC50 under setting [1] is 15.8 µM [rising, partial curve, poor fit].

Take `CC(=O)N(Cc1cc(=O)[nH]c2ccccc12)c1ccccc1C`: under setting [1], the AC50 was 35.5 µM [rising, single point].

`O=[N+]([O-])c1ccc(NC(=S)NCCc2ccc(Cl)cc2)cc1`: the AC50 under setting [1] is 8.2 µM [falling, partial curve, poor fit].

In the case of `COc1cc(/C=C2\SC(=O)NC2=O)ccc1Oc1ccc([N+](=O)[O-])cc1[N+](=O)[O-]`, under setting [2], the AC50 was 12.6 µM [rising, partial curve, poor fit].

For the molecule `CCN(CC)S(=O)(=O)c1cc(Br)c(C)cc1OC`, the AC50 under setting [1] is 1.64 µM [rising, full curve, poor fit].

For `Cc1noc(C)c1C(=O)NC1=NCCS1`, the AC50 under setting [1] is 35.5 µM [falling, single point].

With `CCN1CCn2c1nc(N1CCOCC1)nc2=O`, the AC50 under setting [1] was 20.6 µM [rising, single point].

As to `COc1cc(C(=O)Nc2ccc(NC(=O)c3ccccc3)nc2)cc(OC)c1OC`, under setting [1], the AC50 is 25.1 µM [falling, single point].

Regarding `COc1ccc(CNC(=O)c2ccc3nc(-c4ccc(F)cc4)c(-c4ccc(F)cc4)nc3c2)cc1`, under setting [1], the AC50 was 35.5 µM [rising, single point].

As for `CC(C)OC(=O)CC(=O)CSc1nc2c(c(-c3cccs3)c1C#N)CCC2`, the AC50 by setting is: under setting [1], 32.6 µM [falling, single point]; under setting [2], 25.9 µM [rising, partial curve, poor fit].

Regarding `O=C(CSc1nc2ccccc2[nH]1)c1ccccc1F`, the AC50 under setting [1] was 12.6 µM [falling, single point].

Regarding `Cc1cc(C(=O)N/N=C/c2ccccc2Br)no1`, under setting [1], the AC50 is 10 µM [falling, partial curve, poor fit].

Regarding `Cc1ccc(-c2nc(N)n(C(=O)c3cccs3)n2)cc1`, under setting [1], the AC50 was 0.794 µM [falling, full curve, poor fit].

Take `CCCn1nnnc1SCC(=O)Nc1sc(C)c(C)c1C#N`: under setting [1], the AC50 is 35.5 µM [falling, single point].

Turning to `COc1cccc(N2CCN(Cc3ncc(-c4ccccc4)o3)CC2)c1`, the AC50 under setting [1] is 7.08 µM [falling, partial curve].

Consider `COC(=O)c1nn(-c2ccccc2)c(Sc2ccc(OC)cc2)c1/C=N/O`, for which the AC50 under setting [1] is 14.1 µM [falling, single point].

As for `COc1cccc(NC(=O)N2CCN(c3cccc(C)c3)C(C)C2)c1` (stereo not given), the AC50 under setting [1] was 10 µM [falling, partial curve].

With `O=C(Nc1ccc(Br)cc1)c1cc([N+](=O)[O-])cc([N+](=O)[O-])c1`, under setting [1], the AC50 is 2 µM [rising, full curve, poor fit].

Take `COc1cc(NC(=O)c2ccc(OC)c([N+](=O)[O-])c2)ccc1NC(=O)c1cccs1`: the AC50 under setting [1] was 0.00651 µM [rising, full curve, poor fit].

Turning to `CN(C)S(=O)(=O)c1cccc(NC(=O)c2ccc(S(=O)(=O)N3CCCC3)cc2)c1`, under setting [1], the AC50 was 16.4 µM [falling, single point].

For the molecule `CN1CCC(NC(=O)Nc2ccc(Br)cc2)CC1`, the half-maximal activity concentration (AC50) under setting [1] was 2.82 µM [rising, full curve].

As for `O=S(=O)(c1cccs1)N1CCN(Cc2nc3ccccc3s2)CC1`, under setting [1], the half-maximal activity concentration (AC50) was 29.1 µM [rising, single point].

On to `O=C(Nc1ccc(S(=O)(=O)N2CCOCC2)cc1)c1cccc([N+](=O)[O-])c1`, for which the AC50 under setting [1] is 2.82 µM [rising, full curve, poor fit].

Take `Fc1cc(F)c2nc(N3CCCCC3)sc2c1`: the AC50 under setting [1] was 15.8 µM [rising, partial curve, poor fit].

Take `Cc1c(C(=O)/C=C/N(C)C)nnn1-c1ccc(Cl)cc1C#N`: the AC50 under setting [1] is 11.2 µM [rising, single point].

For `Cc1[nH]c2ccccc2c1C(=O)/C=C/c1ccccc1`, under setting [1], the AC50 is 35.5 µM [falling, single point].

For the molecule `CC1(C)Cc2c(c(N3CCOCC3)nc3sc4c(NCc5ccco5)nnnc4c23)CS1`, the concentration at half-maximal activity (AC50) under setting [1] is 6.51 µM [falling, single point].

On to `CC(C)(C)c1cc(C(=O)NNc2cccc(Cl)c2)n(Cc2ccccc2)n1`, for which the AC50 under setting [1] is 25.1 µM [falling, single point].

As to `CSc1ncccc1C(=O)Nc1nc2ccc(S(C)(=O)=O)cc2s1`, the AC50 under setting [1] is 35.5 µM [falling, single point].

With `Cc1oc2c(Cl)c(Cl)c(O)c(CN(C)C)c2c1C(=O)c1ccc(Cl)cc1`, the AC50 runs as follows: under setting [1], 35.5 µM [falling, single point]; under setting [2], 20 µM [rising, partial curve, poor fit].

Regarding `Cc1cnc(NC(=O)CSc2nnc(-c3ccc(Cl)cc3Cl)n2N)s1`, the AC50 under setting [1] is 0.731 µM [falling, single point].

Turning to `COc1ccc(-c2cc(C(=O)Nc3c(C)n(C)n(-c4ccccc4)c3=O)no2)cc1OC`, the AC50 under setting [1] was 8.91 µM [rising, partial curve, poor fit].

On to `COc1cc(NC(=O)c2csc(N)n2)cc(C(=O)Nc2cccc(C(F)(F)F)c2)c1`, for which the AC50 under setting [1] is 35.5 µM [falling, single point].

Take `CCOc1ccc(NC(=O)Nc2ccc(Br)cn2)cc1`: the AC50 under setting [1] is 0.891 µM [rising, partial curve, poor fit].

With `Cc1cc(NC(=O)CSc2nnc(-c3ccc(O)cc3)o2)no1`, the AC50 under setting [1] was 3.98 µM [falling, partial curve, poor fit].

Take `CCOc1ccc(S(=O)(=O)NCC2CCCO2)cc1NC(=O)c1ccccc1F` (stereo not given): under setting [1], the AC50 was 14.1 µM [rising, single point].

On to `Cc1ccccc1C(=O)Nc1cc(S(=O)(=O)N2CCOCC2)ccc1N1CCN(C)CC1`, for which, under setting [1], the AC50 was 29.1 µM [rising, single point].

On to `COc1ccc(CC(=O)Nc2ccc(-c3nc4ccccc4s3)c(C)c2)cc1OC`, for which the half-maximal activity concentration (AC50) under setting [1] was 3.16 µM [rising, partial curve, poor fit].

In the case of `CCOc1ccc(S(=O)(=O)Nc2ccc(S(=O)(=O)Nc3cc(OC)ccc3OC)cc2)cc1`, the AC50 under setting [1] was 0.146 µM [falling, full curve, poor fit].

Take `COc1ccccc1N1CCN(C(=O)c2ccc(S(=O)(=O)N3CCCCCC3)cc2)CC1`: the AC50 under setting [1] was 6.51 µM [rising, single point].

Consider `COc1ccc(C(=O)CN2C(=O)NC3(CCc4ccccc43)C2=O)c(OC)c1` (stereo not given), for which the concentration at half-maximal activity (AC50) under setting [1] was 20.6 µM [rising, single point].

With `O=C(Nc1ccc([N+](=O)[O-])cc1)Nc1ccc(OC(F)F)c(Cl)c1`, the AC50 under setting [1] is 2.59 µM [rising, partial curve, poor fit].

On to `CC(=O)NC(CC(=O)OCC(=O)c1c(N)n(C)c(=O)n(C)c1=O)c1ccccc1` (stereo not given), for which the AC50 under setting [2] is 11.2 µM [rising, partial curve, poor fit].

As for `O=C(Nc1ccc(F)cc1)Nc1sccc1-c1nc2ccccc2s1`, the AC50 under setting [1] is 35.5 µM [rising, partial curve, poor fit].

`CSc1ccc(C2Nc3cccc4cccc(c34)N2)cc1`: the AC50 under setting [1] is 7.94 µM [falling, partial curve, poor fit].

With `CCOc1ccc(NC(=O)CN(C)C(=O)c2ccc(N3CCCC3)c([N+](=O)[O-])c2)cc1OCC`, the AC50 under setting [1] is 18.4 µM [rising, partial curve, poor fit].

In the case of `Cc1ccc(-c2nc3ncccc3o2)cc1NC(=O)c1cccs1`, under setting [1], the AC50 is 11.2 µM [falling, partial curve, poor fit].

For `Cc1cc(C2N=C(N)Nc3nc4ccccc4n32)c(C)n1-c1ccccc1Cl` (stereo not given), under setting [1], the AC50 was 22.4 µM [falling, single point].
